Record: PubChem BioAssay AID504764 (Drosophila RNAi Screening Center, 2011)

- Test: 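Knock-downs that raise or lower a Notch target reporter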 (primary screen)
- Cell system: Drosophila Kc167 cells
- Reagent: long dsRNA against Drosophila genes
- Time to read-out: about 5 days (4 days dsRNA, then 24 h after transfection)
- Treatment: transfection of constitutively active membrane-tethered Notch lacking the extracellular domain, read 24 h later
- Detection: 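Light from a Notch-responsive E(spl)m3 luciferase reporter under active Notch, with control-promoter and no-Notch reporter wells to normalise; raw counts from paired wells a and b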
- Reading the numbers: induced reporter light, run 1, well a and induced reporter light, run 1, well b: higher = more light from the Notch target reporter with active Notch; control promoter light, run 1, well a and control promoter light, run 1, well b: higher = more light from the viral control promoter (cell number, transfection, viability); uninduced reporter light, run 1, well a: higher = more light from the Notch target reporter without active Notch
- Active means: 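Hit if the duplicate-averaged log2 ratio of induced to control-promoter light gives a plate-wise z beyond ±2, or induced to uninduced beyond ±1.8; weak-control or discordant-duplicate wells dropped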
- Calls: active = modifier hit (raised or lowered Notch signal); inactive = not a hit
In all, the deposit lists about 22,000 reagents; this is an unselected part of those that have a named target and a result. Of all reagents, 403 (1.9%) were called active. 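Unnormalised raw counts per well; ratio z-scores behind the hit calls and whether each hit raises or lowers signal are not deposited.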 Unmarked entries are inactive. Reagents against one gene are numbered here. Reagent sequences are not shown. Not stated in the record: the amount of reagent.

no.	target	dsRNA no.	induced reporter light, run 1, well a	induced reporter light, run 1, well b	control promoter light, run 1, well a	control promoter light, run 1, well b	uninduced reporter light, run 1, well a
1	tej (GeneID 36590)	1	65990	86685	90080	1.23e5	9865
2	Pih1D1 (GeneID 34685)	1	2.58e5	2.42e5	1.83e5	1.95e5	17445
3	MED17 (GeneID 42175)	1	1.24e5 (active)	1.20e5	1.52e5	1.45e5	13082
4	lectin-24Db (GeneID 53550)	1	99885	1.06e5	1.07e5	1.17e5	7505
5	Unc50 (GeneID 41029)	1	1.03e5	98820	78980	68705	5785
6	CG5883 (GeneID 39352)	1	1.56e5	1.63e5	1.94e5	2.32e5	7435
7	mRpS23 (GeneID 318977)	1	1.33e5	1.29e5	1.57e5	1.41e5	8910
8	CG32647 (GeneID 326226)	1	1.39e5	1.36e5	2.75e5	2.27e5	11455
9	CG32647 (GeneID 326226)	2	84170	92640	2.11e5	1.80e5	6235
10	RnrS (GeneID 36280)	1	55555 (active)	49450	43905	46810	7050
11	CG32189 (GeneID 317902)	1	1.74e5	1.82e5	3.21e5	2.55e5	18080
12	CG9289 (GeneID 34195)	1	1.34e5	1.56e5	1.03e5	1.47e5	22885
13	spoon (GeneID 31459)	1	2.36e5	2.14e5	2.10e5	2.46e5	15988
14	CG15236 (GeneID 35595)	1	2.14e5	1.88e5	2.55e5	2.51e5	19610
15	MED8 (GeneID 37305)	1	84050	99650	1.26e5	1.11e5	8355
16	mmy (GeneID 33903)	1	1.50e5	1.60e5	1.79e5	1.90e5	12315
17	Cdk8 (GeneID 39157)	1	87485 (active)	86540	74590	68370	11400
18	CG3568 (GeneID 31383)	1	1.54e5	1.33e5	2.35e5	2.41e5	10605
19	CG11247 (GeneID 40414)	1	1.12e5	1.31e5	84990	94470	9830
20	Der-1 (GeneID 33369)	1	1.83e5	1.74e5	2.13e5	1.92e5	16242
21	Trs31 (GeneID 36641)	1	1.31e5	1.40e5	1.31e5	1.28e5	12532
22	CG3277 (GeneID 33543)	1	1.74e5	1.24e5	1.85e5	1.37e5	11795
23	Mp20 (GeneID 36468)	1	93275	1.18e5	1.20e5	1.05e5	9255
24	DUBAI (GeneID 36361)	1	1.39e5	1.24e5	1.41e5	1.29e5	13195
25	sna (GeneID 34908)	1	1.23e5	1.44e5	1.32e5	1.41e5	9370
26	Vm26Ac (GeneID 33828)	1	87775	50045	54345	58755	4692
27	PQBP1 (GeneID 43004)	1	1.39e5	1.47e5	1.75e5	1.90e5	12945
28	Ubc2 (GeneID 34487)	1	1.22e5	1.61e5	1.53e5	1.58e5	10950
29	Ubc2 (GeneID 34487)	2	1.21e5	1.36e5	72430	1.10e5	18800
30	CG32087 (GeneID 39323)	1	1.45e5	1.44e5	2.37e5	2.00e5	12765
31	Ir56a (GeneID 246471)	1	1.23e5	1.42e5	1.91e5	1.62e5	10200
32	Sld5 (GeneID 43166)	1	1.48e5	1.41e5	1.54e5	1.93e5	13395
33	CG3420 (GeneID 35585)	1	2.54e5	2.25e5	2.65e5	2.47e5	19270
34	Tbcb (GeneID 37244)	1	83065	77080	1.53e5	1.74e5	5760
35	MED6 (GeneID 44728)	1	1.14e5	1.15e5	73620	68800	9670
